The values that follow come from PubChem BioAssay AID2685 (National Center for Advancing Translational Sciences (NCATS), 2010).

Structures are written as SMILES. The list shows a part of the results. These are further read-outs of the screen, such as a control signal, another cell line or another target. No call is given for them. Most of these compounds were active or inconclusive in the main read-out, so they are no random draw. The note in brackets gives the kind of curve behind each potency; many fits are weak.

This test is described as follows: qHTS Assay for Lipid Storage Modulators in Drosophila S3 Cells.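 For cell number change: cells counted by Cell Tracker Red CMTPX staining in the red channel.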 Conditions: BODIPY lipid droplet fluorescence, 18-24 h; for cell number change: measured here: cell count max response, cells fed with added oleic acid. An outline of the steps: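 Laser-scanning cytometry quantifies lipid droplet accumulation (500–530 nm total intensity; droplet/cell object ratio) in oleic acid-fed (400 uM added) Drosophila S3 cells treated with a concentration series. 20 uM Triacsin C defined 100% inhibition.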
For orientation: In qHTS, concentration-response curves come from the screen itself.

Setting [1] is: measured here: lipid fluorescence (Fed channel) AC50, cells fed with added oleic acid.
Where [2] appears, read: measured here: cell number channel AC50, cells fed with added oleic acid.

With `Cc1cc(C)c(OCCNCc2ccccc2)c(C)c1`, the cell number change amounted to 4.99%. Also, under setting [1], the AC50 was 6.51 µM [rising, single point]. In the case of `CCc1ccc2oc(-c3cc(N)ccc3Cl)nc2c1`, the cell number change was -55.4%. The AC50 under setting [2] is 18.4 µM [falling, single point].

Regarding `C=CCN(C(=O)CNC(=O)c1ccco1)C(C(=O)NC1CCCCC1)c1ccc(OC)cc1OC` (stereo not given), the cell number change was -35.2%. Besides, the AC50 under setting [2] is 29.1 µM [falling, single point]. Besides, the half-maximal activity concentration (AC50) under setting [1] was 0.092 µM [falling, partial curve, poor fit]. For the compound `CC(=O)OCCSc1c(-c2ccccc2)c2cc(Cl)ccc2[nH]c1=O`, the cell number change was -38.2%. Besides, under setting [2], the AC50 is 13 µM [falling, single point].

For the compound `CCc1cc2c(SCC(=O)Nc3ccc(NC(C)=O)cc3)ncnc2s1`, the cell number change was -14.6%. The AC50 under setting [2] was 0.82 µM [rising, single point]. With `COc1cc(OC)c(C(=O)N2CCN(c3ccccn3)CC2)cc1OC`, the cell number change is -19.9%. Take `Cc1ccc2sc(N(CCCN(C)C)C(=O)c3ccc(S(=O)(=O)N(C)C4CCCCC4)cc3)nc2c1C`: the cell number change was -32.8%. Under setting [2], the AC50 was 23.1 µM [falling, single point].

With `CCS(=O)(=O)N1CCN(C(=O)COc2ccc(-c3ccccc3)cc2)CC1`, under setting [1], the concentration at half-maximal activity (AC50) is 18.4 µM [rising, partial curve]. Regarding `Cc1ccccc1Nc1nc(N)nc(COC(=O)c2cccc(S(=O)(=O)N(C)C)c2)n1`, the cell number change is 34.8%. Further, under setting [2], the AC50 was 8.2 µM [rising, partial curve]. Under setting [1], the AC50 is 6.51 µM [rising, partial curve]. Take `O=S(=O)(NCc1cccnc1)c1ccc(Br)s1`: the cell number change is -17.2%. For the same compound, under setting [2], the AC50 was 0.58 µM [falling, full curve, poor fit]. Also, the AC50 under setting [1] was 0.411 µM [rising, full curve, poor fit]. Take `CCOc1nc(NCCN2CCOCC2)nc(NC(C)C)n1`: the cell number change worked out at 1.92%. The AC50 under setting [1] is 0.731 µM [rising, single point].

Take `Cc1cc(NC(=O)CSc2nc(N)c(NC(=O)c3ccccc3F)c(=O)[nH]2)no1`: the cell number change stood at 26.1%. In addition, the AC50 under setting [1] was 29.1 µM [rising, single point]. For `COc1ccccc1CNC(=O)CN(C)S(=O)(=O)c1ccc2c(c1)n(C)c(=O)c(=O)n2C`, the cell number change was -7.78%. The AC50 under setting [1] was 6.51 µM [falling, single point]. On to `c1ccc(-c2nnc3sc(-c4csc5c4CCCC5)nn23)cc1`, for which the cell number change is -83.6%. The AC50 under setting [2] is 29.1 µM [falling, single point]. Under setting [1], the AC50 was 29.1 µM [falling, single point]. In the case of `COc1cccc(CNC(=O)C2CCCN(S(=O)(=O)c3cccc4nonc34)C2)c1` (stereo not given), the cell number change came to 106%. Moreover, the AC50 under setting [2] was 11.6 µM [rising, partial curve]. Besides, under setting [1], the AC50 was 1.16 µM [rising, full curve]. Consider `O=C(Nc1ccc([N+](=O)[O-])cc1)C1CC12CCC2` (stereo not given), for which the cell number change is -14.8%. For `CC(=O)Nc1ccc(S(=O)(=O)N2CCSC2c2ccc(Cl)cc2)cc1` (stereo not given), the cell number change was -25.8%. Further, the AC50 under setting [1] is 0.092 µM [falling, full curve, poor fit]. `COC(=O)c1sccc1NC(=O)Nc1ccc(C)c(C)c1`: the cell number change is -2.6%. For the compound `C=CCC(O)c1c(-c2ccccc2)nn(C)c1Cl` (stereo not given), the cell number change is 0.271%.

As to `CN1Cc2sc(N)c(C#N)c2CC1(C)C`, the cell number change came to 21.2%. Under setting [1], the AC50 was 16.4 µM [rising, single point]. For `O=C(c1ccco1)N1CCCC(c2nc3c(nnn3Cc3cccc(Cl)c3)c(=O)[nH]2)C1` (stereo not given), the cell number change was 6.84%. In addition, the AC50 under setting [1] was 6.51 µM [rising, single point]. In the case of `Cc1cc(Cl)c(OCCCNC2CCCC2)c(Br)c1`, the cell number change was found to be 2.07%. For the compound `CN1C(=O)/C(=C/c2ccc(C(=O)NC3CCCC3)cc2)Oc2ccccc21`, the cell number change is -22.7%. In addition, under setting [1], the AC50 is 1.46 µM [falling, partial curve, poor fit].

As to `C/C(=N\Nc1ncc(Cl)cc1Cl)c1ccc(OC(F)F)cc1`, the cell number change was determined as 15.1%. Besides, the AC50 under setting [1] is 5.17 µM [rising, partial curve].

With `Cc1cccc(C(=O)Nc2ccccc2SCC(=O)Nc2ccc(C)c(Cl)c2)c1`, the cell number change was -22.3%. The AC50 under setting [1] is 10.3 µM [falling, partial curve, poor fit]. As to `O=c1c(O[C@H]2O[C@@H](CO)[C@H](O)[C@@H](O)[C@@H]2O)c(-c2ccc(O)cc2)oc2cc(O)cc(O)c12`, the cell number change stood at 18.5%. Besides, the AC50 under setting [1] is 3.66 µM [rising, full curve].

In the case of `COc1cc(-c2nc3ccccn3c2/N=C/c2cc(OC)c(O)cc2Cl)ccc1O`, the cell number change came to 24.1%. `COc1ccc(NC2CCCN(C(=O)c3cccnc3SC)C2)cc1OC` (stereo not given): the cell number change is -13.2%. Besides, the AC50 under setting [1] was 0.58 µM [rising, single point]. Consider `CCN(CCn1cccn1)C(=O)C1CCC(=O)N(CC2CCCCC2)C1` (stereo not given), for which the cell number change was -6.57%. In addition, the AC50 under setting [1] was 0.58 µM [rising, single point]. Take `CCCCn1c(N)c(N(CCOC)C(=O)c2cccc(S(=O)(=O)N(C)c3ccccc3)c2)c(=O)[nH]c1=O`: the cell number change came to 48.3%. In addition, the AC50 under setting [2] was 8.2 µM [rising, partial curve]. Besides, under setting [1], the AC50 is 6.51 µM [rising, single point]. With `CC(C)N1CSC(=S)N(Cc2ccccc2)C1`, the cell number change was -18.8%. Moreover, the AC50 under setting [1] was 29.1 µM [falling, single point]. Consider `Cn1c(C(=O)N2CCC(C(=O)N3CCN(Cc4ccc5c(c4)OCO5)CC3)CC2)cc2sccc21`, for which the cell number change was 2.57%. The AC50 under setting [1] is 29.1 µM [falling, single point].

Consider `CC(C)c1ccc(NC(=O)c2cc(S(=O)(=O)N3CCCC3)c[nH]2)cc1`, for which the cell number change is 16.8%. Under setting [1], the AC50 was 0.92 µM [falling, full curve, poor fit]. For the compound `CCOC(=O)CN(c1cccc(C(C)=O)c1)S(C)(=O)=O`, the cell number change was -3.24%. In addition, the AC50 under setting [1] is 6.51 µM [rising, single point].

As for `Oc1ccc(-c2csc(-c3ccccc3)n2)cc1O`, the cell number change was -40.4%. Besides, under setting [2], the AC50 is 23.1 µM [falling, partial curve]. Further, the AC50 under setting [1] is 2.59 µM [falling, partial curve, poor fit]. On to `Cc1cc(N2CCN(c3ccc(F)cc3)CC2)n2ncnc2n1`, for which the cell number change is 13%. Further, the AC50 under setting [1] is 10.3 µM [rising, partial curve]. Take `Cc1ccc(C(C)C)c(OCC(=O)OCC(=O)c2c(N)n(C)c(=O)n(C)c2=O)c1`: the cell number change is -21.8%. In addition, under setting [1], the AC50 was 10.3 µM [falling, partial curve, poor fit]. As to `Cc1ccccc1OCC(=O)Nc1sc2c(c1C#N)CCC2`, the AC50 under setting [1] is 2.91 µM [rising, single point].

For orientation: AC50 means the concentration at which the activity in the assay is half-maximal.
